Data on 106 sequences can be found in PubChem BioAssay AID1508600 (Functional Genomics Laboratory (NCATS/FGL), 2020).

Hit rate of the full screen: of about 53,000 sequences, about 3,700 (7%) were called active.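 The calls were made as follows: active = gene knockdowns whose robust z-score for IL-1 alpha signal is at least 2 or at most -2, so actives lie on both sides; inactive = the rest.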 This is one part of the list.

The assay can be described thus: Components of the Cytosolic LPS Sensing Pathway: Gene Identification via Genome-wide siRNA Screen.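 Also: robust z of the log signal after scaling to non-targeting control siRNA wells of the plate.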 The settings on record: RAW264.7 macrophages, IL-1a HTRF, actives lie on both sides, screened at 100 nM (by protocol), cells primed 5 h with Pam3CSK4 first. In a few lines: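 IL-1a HTRF of supernatants after 24 hour LipidA transfection of Pam3CSK4-primed (5 hours) RAW264.7 cells, 48h post-siRNA transfection (100 nM). Scores: percent of plate negative-control median, then log-based robust z-score.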
(In general: In TR-FRET formats the signal depends on donor and acceptor labels being close together.)
For GGAUGAUCACACUAGAGUUTT against Fam222b, the z-score is inactive: 0.752.
As for GCUUACCUAACAAAUACAATT against Hacd2, the z-score was inactive: 1.99.
Turning to GUACACCACAAUCCUCACCTT against Olfr677, the z-score was inactive: -0.0852.
For the sequence CCGAUCAUUAUGAGCAUACTT against Nxf7, the z-score was inactive: -1.76.
Turning to GGGAAGGACCUCAUUCAACTT against Btnl10, the z-score is inactive: 0.719.
GCAGAGGAUAUAAAACAAGTT against Pde2a: the z-score is inactive: -0.86.
To GGUAGCUAAAGAAAACCAGTT against Rangrf belongs inactive: -1.12.
Take GGAGAUUACCAGGUAUCAGTT against Ptpn21: the z-score was inactive: -1.55.
Under GGCAUUUGACUUUAUUGCATT against Nit1 stands active: 3.54; under GGACUAUCUUUAUGAUGUGTT against Ush1c, inactive: -0.164; under GUCUACUUUGACCGUGAUGTT against Fthl17e, inactive: -1.56.
As to GGCAAUGUGCUGAUCCACUTT against Slc38a10, the z-score was inactive: -0.349.
GCUAUUACACCAGUUUUAATT against Csde1: the z-score was inactive: 0.949.
Turning to GCUUAUUAACCACUACCACTT against Pik3r3, the z-score is inactive: 0.351.
In the case of GGAGCACAAUUCAAAUUCATT against Zbtb6, the z-score was active: 2.06.
For GCACAAUCAUUCUUCUCAUTT against Mtor, the z-score was inactive: -0.96.
To GGUUCGUUUGCAUUGGAAUTT against Cysltr1 belongs inactive: 0.428.
As to “GCCAGAUGCGAUUCUCAGGTT against C730034F03Rik”, the z-score is inactive: 0.195.
Consider GGUAUCCAACUGGUUUGUATT against Tgif2lx1, for which the z-score was inactive: 1.54.
As to GGUCCAUUACGUGCGCUUATT against Cage1, the z-score was inactive: -0.00235.
Consider CGAUCAUGAGUCGAAGACUTT against Olfr1257, for which the z-score is inactive: 1.43.
Under GCUCAGUGGACAUGCUCUATT against Hpse stands inactive: -0.502.
Take GGUCAUUGUCAAAGUCAAGTT against Nutm1: the z-score was active: 2.4.
Under GGAGAAAGAUGUGCUCUGGTT against Il1rap stands inactive: -1.99; under GGAAAGUGCAGGAGAACAGTT against Mettl2, inactive: -0.304; under CCUACACAGCUGAAAUGGUTT against Olfr710, inactive: -0.375.
As to GGUGAUGGGCAAGGUGUUCTT against Syvn1, the z-score is inactive: 0.25.
For GGCUGUGCUACAGUUUCUCTT against Get4, the z-score was inactive: -0.498.
Under “CGAAAUAGGUAUUAAGGGUTT against Olfr1372-ps1” stands inactive: -0.497; under CCAAUAUGGUUUGUGGACUTT against Ube2q2, inactive: -0.24.
As to GCGAGUUGAAGACUGAAGGTT against Ccdc68, the z-score was inactive: 1.44.
Regarding GGAGAUGAAGAAGAUUCAATT against Pura, the z-score was inactive: 0.604.
Under GGGUCAUCAGAGCUGACAGTT against Gatad2a stands inactive: -1.91; under GCUACCUUCAGACAAGCACTT against Prss32, inactive: -0.877.
With GGCUCUCUAGAUUCAAAAATT against Lars2, the z-score is inactive: 0.883.
Under GGAAUUCAUCUUACAUUCCTT against Acox3 stands active: 2.42.
For GCAAGAACUGACUUUCCUATT against Snn, the z-score is inactive: 0.768.
With GGCAGCAGAGAACAAGAAATT against Serbp1, the z-score is inactive: -1.43.
Take GGAAGAAGUCUGGAGGAUGTT against Steap3: the z-score is inactive: -0.493.
Under GGACACUGUACUCAAACCUTT against Cntnap5b stands active: -2.86.
GGCACAAAUGAAUUCAUACTT against Zfp958: the z-score was inactive: -0.927.
To GGAUGAGUUCCUUUUACUATT against Cntnap4 belongs inactive: 0.285; to “GCAAGUCUGGAUGGAUGAGTT against 1190005I06Rik”, inactive: -1.54; to GGUCUCUGAACUGAUCCGUTT against Cyp7a1, inactive: -0.685.
Take GGUAAAUUGAGAGAAUAACTT against Tpd52: the z-score was inactive: 0.214.
Under GGUAAUGCAAACAUGCGGGTT against Lhfpl1 stands inactive: -0.519; under CCCUGACUUAAUAAGAGACTT against Tmem108, inactive: -0.21.
In the case of GGAUUGUCGAGAUUGCGUCTT against Tbcc, the z-score is inactive: -0.473.
On to GGGUACAAGUGCUGAAAAATT against Grhl1, for which the z-score was inactive: -0.0331.
Under GCAACAAGCUUUCUGUGCGTT against Map10 stands inactive: 0.22.
As for GGUUACCUUGAGCUAUGGGTT against Rfng, the z-score is inactive: 1.23.
To GGAGAAAGAUGGCUCAUCUTT against Itm2a belongs inactive: -0.0843.
As to GGUGUCUCUGAAGAUUGAATT against Cdc6, the z-score was inactive: 0.345.
As to GGAAUUCAUCACUCAAAUGTT against Catsper4, the z-score was inactive: 1.98.
GGUGACCAUCAAAUGUGGCTT against Dipk1b: the z-score is inactive: 0.694.
Regarding GGUAUUCGCUUAAAAUCCATT against Stab2, the z-score is inactive: 1.81.
Turning to GGAUGUUGUAGUCAAAACCTT against Ttll4, the z-score is inactive: 1.28.
Consider GGACUGAUGCAUUCUUUGCTT against Trmt10a, for which the z-score is inactive: 0.139.
Regarding CCAUUGUGUCAUACGGCUUTT against Olfr211, the z-score was inactive: 0.981.
Take “GGUCUCUUCAUUCUUGUGCTT against 1700084J12Rik”: the z-score was inactive: 0.934.
For the sequence GCUCAUUCUUACCAAUCUCTT against Vsig2, the z-score was active: -2.25.
As to GGAAUAGUAUACAAUAACCTT against Fbxl5, the z-score was inactive: 0.993.
As to GAACAACAACAGACAAGUGTT against Cxcl12, the z-score was inactive: -0.65.
Under CCCAGUGAAUCUAAGAAAATT against Zfp260 stands inactive: 1.33.
Regarding CCCUACUCCUCAGAACUUATT against Tbc1d10a, the z-score is inactive: -0.499.
Under CGCACCUCCAGAUCAAAAGTT against Ucn3 stands inactive: 1.69.
For AACUUAUGGUUGGUUGUCGTT against Marveld3, the z-score was inactive: -0.159.
As to GGGCAAUCAAGAUAACAAATT against Stk35, the z-score is inactive: 1.09.
With GGGUCCCUUUGUCAGUAUGTT against Cfap300, the z-score was inactive: 0.932.
With CCCUGGUUAUCACAGACAATT against Rpl38, the z-score is inactive: 1.53.
On to “GCUGGGAAAGCAGAAUCUATT against 0610009B22Rik”, for which the z-score was inactive: -0.747.
On to GCAGUAAAUGCGAGCAGGATT against Hoxb8, for which the z-score was inactive: 0.809.
With GCACCAAAUUUUGUGCUUUTT against Olfr395, the z-score was inactive: 0.555.
As for GCGACAAAGCUCGUUAUGATT against Hmgb2, the z-score was active: -2.3.
In the case of CCUACUUAUGCCUUGCCACTT against Rbpjl, the z-score was inactive: -0.403.
With GGAGAAUCUUCAACACUGGTT against Adprh, the z-score is inactive: -0.951.
CCAAGCAACACCACUCAUCTT against Acap2: the z-score was inactive: -0.681.
In the case of “CCAAAGUCUGUUAAUGGGUTT against 4921517D22Rik”, the z-score was inactive: 0.401.
As for GGACCAGAUAAUAAAGGAATT against Tmed2, the z-score was inactive: -1.16.
As to GGACCAACAAGUUCAUCAATT against Arhgap10, the z-score was inactive: 1.26.
To GGUAACAGAAUACCUGUCCTT against Hapln4 belongs inactive: -0.506; to CGGACUGUGUGUGCCAAGUTT against Trmt11, inactive: -0.337; to GGAACCCAAGUGCUUAGAATT against Riox1, inactive: -0.478.
Take GGGCCAUCUGUACUAUGAUTT against Tgm4: the z-score was inactive: 0.944.
Under GGCCUCAAGAGCAAUACGUTT against Zfp663 stands inactive: -0.687; under GGUGCUUUUAGUCUAGCUATT against Pcdhac1, inactive: 1.83.
With CCAUUUGAGGUAUUGGUAUTT against Acadsb, the z-score was inactive: -0.587.
With GCUUUAUGCCAGUUGUCAUTT against Slc35f1, the z-score was inactive: -0.927.
Under GGCUACAAGUGGGAAUUCATT against Cmtm2b stands inactive: 1.61; under GGCAAGGUCUUGGAUGUGATT against Mx1, inactive: -0.574.
Turning to CGACUUCCAGUUUGUGCAGTT against Dpp9, the z-score was inactive: -0.575.
For the sequence GGUGAAAAGUCAAUUUUACTT against Neurog1, the z-score was inactive: -0.562.
Take GGACCUCACUGAGACCUUATT against Anxa8: the z-score was inactive: -0.375.
Regarding CGUGAAUCUGCACCACGUUTT against Fads6, the z-score was inactive: 0.474.
As for GCAGUCACUUUUUAGUAUCTT against Vmn1r44, the z-score is inactive: 0.294.
As to GGAUGAAAAGCUUCAAUGUTT against Tomm70a, the z-score was inactive: -0.468.
For GGCAUUUCUUCAAAGCUGATT against Il1bos, the z-score was inactive: -0.0768.
Under CGCACUAGGUGAGUUCAUCTT against Dab2ip stands inactive: 0.725; under CCUUGAGAAAGCUCCAGUUTT against Cldn9, inactive: 0.0773.
Turning to GCUUUACCUGCUCAGAAGCTT against Olfr520, the z-score was active: -2.26.
Consider CCGGUUAUAGCGAACAUUUTT against Appl1, for which the z-score was inactive: 1.63.
Under GGAAGAAAUCAUGAGGAACTT against Xab2 stands inactive: -0.616; under CGGUAUGUGUUGUCAGAGGTT against Mypop, inactive: -0.695; under GCCUCCACAGACAAAUACGTT against Synrg, inactive: -0.129.
Take GAGCAGAGGAUUGAUGCACTT against Nlrp4g: the z-score is inactive: 0.918.
On to GGCACGUUAUGAAGACCAGTT against Ttc6, for which the z-score was inactive: 1.49.
